Data as given in PubChem BioAssay AID493246 (Drosophila RNAi Screening Center, 2011).

- Purpose: 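Genes fly cells need to grow and stay alive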 (primary screen)
- Cell system: Drosophila Kc and S2R+ cells
- Reagents: long dsRNA against Drosophila genes
- Detection: 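Cell number per well after knock-down, printed as raw plate values; calls were based on per-plate z-scores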
- Scale: Kc cell number and S2R+ cell number: higher = more cells remaining
- Call rule: 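Counted as a hit if cell number falls by a z-score of at least 3 within its plate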
In all, the deposit lists about 21,000 reagents; below is a random part of those with a known target gene and a result. Of all reagents, 429 (2%) are marked active. 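Values are raw and not normalised between plates; calls rest on per-plate z-scores that were not deposited.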 Unmarked entries are inactive. Reagents against one gene are numbered here. Names joined by + are all predicted targets of the reagent. The record does not give: the amount of reagent, the time to read-out.

| gene | reagent no. | Kc cell number, rep 1 | Kc cell number, rep 2 | S2R+ cell number, rep 1 | S2R+ cell number, rep 2 |
| --- | --- | --- | --- | --- | --- |
| CNT1 + CG13742 | 1 | 1.51e6 | 1.53e6 | 1.31e6 | 1.35e6 |
| CG32388 (GeneID 192611) | 1 | 1.42e6 | 1.61e6 | 1.16e6 | 1.31e6 |
| chic (GeneID 33834) | 1 | 1.34e6 | 1.23e6 | 1.12e6 | 1.29e6 |
| Eps-15 (GeneID 37961) | 1 | 1.26e6 | 1.41e6 | 8.51e5 | 9.40e5 |
| CG1544 (GeneID 43689) | 1 | 4.79e5 | – | 8.14e5 | – |
| CG31036 (GeneID 43539) | 1 | 1.52e6 | 1.55e6 | 1.02e6 | 1.04e6 |
| CG31036 (GeneID 43539) | 2 | 1.44e6 | 1.44e6 | 1.08e6 | 1.10e6 |
| mRpL9 (GeneID 41859) | 1 | 9.98e5 | 1.11e6 | 1.04e6 | 1.13e6 |
| CG42580 (GeneID 8673961) | 1 | 1.32e6 | 1.49e6 | 1.06e6 | 1.19e6 |
| CG32832 (GeneID 318237) | 1 | 1.40e6 | 1.43e6 | 8.76e5 | 1.05e6 |
| pre-mod(mdg4)-AD + mod(mdg4) + pre-mod(mdg4)-X + 3 more | 1 | 1.48e6 | 1.48e6 | 1.01e6 | 1.11e6 |
| Tmep (GeneID 38185) | 1 | 1.31e6 | 1.39e6 | 1.01e6 | 1.06e6 |
| Ilp5 (GeneID 2768992) | 1 | 1.46e6 | 1.63e6 | 1.14e6 | 1.29e6 |
| CG13364 (GeneID 50364) | 1 | 1.58e6 | 1.58e6 | 9.95e5 | 1.12e6 |
| CG13364 (GeneID 50364) | 2 | 1.72e6 | 1.77e6 | 1.06e6 | 1.21e6 |
| Usp7 (GeneID 32169) | 1 | 1.34e6 | 1.61e6 | 1.15e6 | 1.22e6 |
| Usp7 (GeneID 32169) | 2 | 1.58e6 | 1.62e6 | 1.04e6 | 1.22e6 |
| CG6481 (GeneID 32843) | 1 | 1.57e6 | 1.57e6 | 1.14e6 | 1.30e6 |
| spir (GeneID 45931) | 1 | 1.55e6 | 1.66e6 | 1.32e6 | 3.32e5 |
| CG32188 (GeneID 317901) | 1 | 1.48e6 | 1.57e6 | 1.15e6 | 1.37e6 |
| gl (GeneID 42210) | 1 | 1.40e6 | 1.54e6 | 1.03e6 | 1.05e6 |
| Nmdar2 (GeneID 31107) | 1 | 1.51e6 | 1.56e6 | 1.03e6 | 1.13e6 |
| Nmdar2 (GeneID 31107) | 2 | 1.51e6 | 1.45e6 | 1.01e6 | 1.10e6 |
| Nmdar2 (GeneID 31107) | 3 | 1.47e6 | 1.50e6 | 1.00e6 | 1.12e6 |
| Or2a (GeneID 31207) | 1 | 1.43e6 | 1.49e6 | 1.12e6 | 1.23e6 |
| CG34198 (GeneID 5740481) | 1 | 4.68e5 | – | 6.73e5 | – |
| CG7879 (GeneID 38184) | 1 | 1.41e6 | 1.51e6 | 1.12e6 | 1.11e6 |
| az2 (GeneID 35682) | 1 | 1.31e6 | 1.39e6 | 1.02e6 | 9.19e5 |
| CG2663 (GeneID 40649) | 1 | 1.59e6 | 1.79e6 | 1.31e6 | 1.36e6 |
| rept (GeneID 40092) | 1 | 1.50e6 | 1.55e6 | 1.21e6 | 1.36e6 |
| CG7194 (GeneID 38933) | 1 | 1.53e6 | 1.37e6 | 1.18e6 | 1.24e6 |
| hyd (GeneID 41181) | 1 | 1.81e6 | 1.69e6 | 1.16e6 | 1.32e6 |
| CG13110 (GeneID 34253) | 1 | 1.52e6 | 1.47e6 | 1.09e6 | 1.14e6 |
| CG17985 (GeneID 35702) | 1 | 1.64e6 | 1.69e6 | 1.36e6 | 1.52e6 |
| eIF3a (GeneID 40563) | 1 | 1.32e6 (active) | 1.40e6 | 8.21e5 | 9.31e5 |
| Cph (GeneID 31660) | 1 | 1.40e6 | 1.51e6 | 1.08e6 | 1.11e6 |
| Cph (GeneID 31660) | 2 | 1.51e6 | 1.49e6 | 1.05e6 | 1.15e6 |
| Trax (GeneID 41871) | 1 | 1.58e6 | 1.68e6 | 1.23e6 | 1.32e6 |
| C1GalTA (GeneID 34215) | 1 | 1.33e6 | 1.44e6 | 9.69e5 | 1.03e6 |
| ppk3 (GeneID 246504) | 1 | 1.53e6 | 1.57e6 | 1.28e6 | 1.33e6 |
| RpL34b (GeneID 41120) | 1 | 1.35e6 | 1.31e6 | 1.07e6 | 1.17e6 |
| Tom (GeneID 39619) | 1 | 1.75e6 | 1.76e6 | 1.43e6 | 1.39e6 |
| E(spl)mbeta-HLH (GeneID 43152) | 1 | 5.84e5 | – | 7.72e5 | – |
| egr (GeneID 36054) | 1 | 1.53e6 | 1.52e6 | 1.25e6 | 1.21e6 |
| TwdlQ (GeneID 43214) | 1 | 1.48e6 | 1.49e6 | 8.95e5 | 9.60e5 |
| Asator (GeneID 43794) | 1 | 1.48e6 | 1.45e6 | 1.02e6 | 1.09e6 |
| Osi20 (GeneID 40777) | 1 | 1.55e6 | 1.70e6 | 1.24e6 | 1.35e6 |
| myo (GeneID 43811) | 1 | 4.73e5 | – | 8.39e5 | – |
| CG9459 (GeneID 41213) | 1 | 1.66e6 | 1.76e6 | 1.26e6 | 1.32e6 |
| CG34353 (GeneID 5740590) | 1 | 1.66e6 | 1.72e6 | 1.05e6 | 1.17e6 |
| CG34353 (GeneID 5740590) | 2 | 1.55e6 | 1.65e6 | 1.03e6 | 1.15e6 |
| CG34353 (GeneID 5740590) | 3 | 1.65e6 | 1.72e6 | 1.03e6 | 1.18e6 |
| CG34353 (GeneID 5740590) | 4 | 1.55e6 | 1.58e6 | 9.79e5 | 1.14e6 |
| CG30046 (GeneID 36334) | 1 | 1.51e6 | 1.46e6 | 1.17e6 | 1.26e6 |
| Cp36 (GeneID 31787) | 1 | 1.53e6 | 1.53e6 | 1.09e6 | 1.21e6 |
| Dscam3 (GeneID 42103) | 1 | 1.25e6 | 1.27e6 | 1.22e6 | 1.40e6 |
| Dscam3 (GeneID 42103) | 2 | 1.24e6 | 1.33e6 | 1.24e6 | 1.41e6 |
| CG2616 (GeneID 40915) | 1 | 1.24e6 | 1.44e6 | 1.15e6 | 1.24e6 |
| lz (GeneID 31883) | 1 | 1.42e6 | 1.64e6 | 1.07e6 | 1.16e6 |

Records listed so far whose gene name starts with D or d:
| gene | reagent no. | Kc cell number, rep 1 | Kc cell number, rep 2 | S2R+ cell number, rep 1 | S2R+ cell number, rep 2 |
| --- | --- | --- | --- | --- | --- |
| Dscam3 (GeneID 42103) | 1 | 1.25e6 | 1.27e6 | 1.22e6 | 1.40e6 |
| Dscam3 (GeneID 42103) | 2 | 1.24e6 | 1.33e6 | 1.24e6 | 1.41e6 |
